Article PMC6026704

T1: FL-SIKE-6xHis (pET26b, C-terminal 6xHis tag) (human) (UniProt Q9BRV8)
T1 sequence: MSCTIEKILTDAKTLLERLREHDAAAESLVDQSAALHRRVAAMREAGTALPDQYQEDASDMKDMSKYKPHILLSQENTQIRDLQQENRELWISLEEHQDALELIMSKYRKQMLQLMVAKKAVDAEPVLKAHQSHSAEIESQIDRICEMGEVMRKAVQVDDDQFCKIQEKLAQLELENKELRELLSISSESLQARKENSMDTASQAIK


Legend:
[1] = molecular target: T1, FL-SIKE-6xHis (pET26b, C-terminal 6xHis tag) (human); experiment: pull-down; in vitro precipitation (IVP): 6xHis-tagged SIKE (8 uM) pre-incubated with the partner (4-11.2 uM; molar ratios 1:0.5, 1:1, 1:1.4) in 50 mM NaH2PO4 pH 8, 0.3 M NaCl at 4 °C, precipitated with Ni-NTA agarose at RT, washed with 50 mM imidazole, eluted with 250 mM imidazole; SDS-PAGE of bound and unbound samples; both purified
[2] = molecular target: EGFP-α-actinin (pEGFP-α-actinin); experiment: co-IP; reciprocal immunoprecipitation: EGFP- or mCherry-tagged cytoskeletal protein precipitated from co-transfected HEK293 lysate (500 ug protein) with anti-GFP or anti-mCherry antibody cross-linked to protein G Dynabeads, overnight at 4 °C, washed with TBS/0.1% Tween-20; blot for FLAG or HA (SIKE); basal or dsRNA (50 ug/mL pI:pC, 12 h) stimulated cells
[3] = molecular target: mCherry tubulin (pmCherry-α-tubulin); experiment: as above

binding [1] | binding [2] | binding [3] | Molecule
binds | – | – | α-actinin (Cytoskeleton, Inc.)
– | binds | binds | Suppressor of IKKepsilon (SIKE), WT, FLAG-tagged (pCMVFLAG5a SIKE 6xHis) (protein, UniProt Q9BRV8-1 1-207) MSCTIEKILTDAKTLLERLREHDAAAESLVDQSAALHRRVAAMREAGTALPDQYQEDASDMKDMSKYKPHILLSQENTQIRDLQQENRELWISLEEHQDALELIMSKYRKQMLQLMVAKKAVDAEPVLKAHQSHSAEIESQIDRICEMGEVMRKAVQVDDDQFCKIQEKLAQLELENKELRELLSISSESLQARKENSMDTASQAIK
– | – | binds | phosphomimetic SIKE (pCMVHA-SIKE S6E (S133, 185, 187, 188, 190, 198E)) (protein, UniProt Q9BRV8-1 1-207) MSCTIEKILTDAKTLLERLREHDAAAESLVDQSAALHRRVAAMREAGTALPDQYQEDASDMKDMSKYKPHILLSQENTQIRDLQQENRELWISLEEHQDALELIMSKYRKQMLQLMVAKKAVDAEPVLKAHQEHSAEIESQIDRICEMGEVMRKAVQVDDDQFCKIQEKLAQLELENKELRELLEIEEEELQARKENEMDTASQAIK

Results are given in words; binding and its absence hold for the method and conditions named. Binding can be weak; no strength is given. Tags and fused reporters may be left off the sequences shown. For some of these results: Binding seen in cells or lysates may run through a third protein.
